{"source": "PubChem BioAssay AID652259 (Drosophila RNAi Screening Center, 2013)", "assay": "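Knock-downs that push a Wingless-driven reporter up or down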 (primary screen)", "cells": "Drosophila clone 8 imaginal disc epithelial cells", "reagents": "long dsRNA against Drosophila genes", "challenge": "pathway stimulated by co-transfected Wingless expression plasmid", "measurement": "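Firefly luciferase from a tcf-site Wingless reporter, measured alongside co-transfected Renilla luciferase that tracks transfection; pathway stimulated by a Wingless plasmid; the firefly-to-Renilla ratio is not deposited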", "scale": "firefly reporter light: higher = more Wg reporter light, before normalisation; Renilla control light: higher = more transfected or surviving cells", "rule for the call": "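Strong candidates differ from their plate mean by at least two out of four per-plate statistical tests; weak candidates meet just one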", "meaning of the calls": "active = candidate regulator (raises or lowers reporter); inactive = not a candidate", "note": "In all, the deposit lists about 22,000 reagents; below is an unselected part of those that have a named target and a result. Of all reagents, 233 (1.1%) are marked active. 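Light values are raw, unnormalised plate reads; the ratio scores behind the reporter calls were not deposited.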 Names joined by + are all predicted targets of the reagent. No sequences are given here. Not stated in the record: the amount of reagent, the time to read-out, the dose of the treatment."}
{"gene": "CG33458", "DRSC id": "DRSC22891", "firefly reporter light, replicate 1": 5.22e5, "firefly reporter light, replicate 2": 4.96e5, "Renilla control light, replicate 1": 2.14e5, "Renilla control light, replicate 2": 93806, "outcome": "inactive"}
{"gene": "scpr-A + scpr-C", "DRSC id": "DRSC15737", "firefly reporter light, replicate 1": 13863, "Renilla control light, replicate 1": 3978, "outcome": "inactive"}
{"gene": "Ance-2", "DRSC id": "DRSC02539", "firefly reporter light, replicate 1": 2153, "firefly reporter light, replicate 2": 6529, "Renilla control light, replicate 1": 849, "Renilla control light, replicate 2": 2832, "outcome": "inactive"}
{"gene": "Gs1", "DRSC id": "DRSC00753", "firefly reporter light, replicate 1": 13961, "Renilla control light, replicate 1": 3723, "outcome": "inactive"}
{"gene": "cutlet", "DRSC id": "DRSC00284", "firefly reporter light, replicate 1": 4482, "firefly reporter light, replicate 2": 12528, "Renilla control light, replicate 1": 1483, "Renilla control light, replicate 2": 4396, "outcome": "inactive"}

2 entries from above in another layout:
CG33458 [DRSC22891]: firefly reporter light, replicate 1 = 5.22e5; firefly reporter light, replicate 2 = 4.96e5; Renilla control light, replicate 1 = 2.14e5; Renilla control light, replicate 2 = 93806; outcome = inactive
scpr-A + scpr-C [DRSC15737]: firefly reporter light, replicate 1 = 13863; Renilla control light, replicate 1 = 3978; outcome = inactive

The list goes on.
{"gene": "CG42507 + Trl", "DRSC id": "DRSC09325", "firefly reporter light, replicate 1": 2953, "Renilla control light, replicate 1": 1404, "outcome": "inactive"}
{"gene": "CG42507 + Trl", "DRSC id": "DRSC11308", "reporter change call, replicate 1": "Wg reporter activity raised", "firefly reporter light, replicate 1": 4268, "Renilla control light, replicate 1": 273, "outcome": "active"}
{"gene": "nompB", "DRSC id": "DRSC03701", "firefly reporter light, replicate 1": 2187, "firefly reporter light, replicate 2": 5757, "Renilla control light, replicate 1": 739, "Renilla control light, replicate 2": 2336, "outcome": "inactive"}
{"gene": "nompB", "DRSC id": "DRSC03731", "firefly reporter light, replicate 1": 5050, "firefly reporter light, replicate 2": 10167, "Renilla control light, replicate 1": 1344, "Renilla control light, replicate 2": 4496, "outcome": "inactive"}
{"gene": "Smyd4-1", "DRSC id": "DRSC06785", "firefly reporter light, replicate 1": 8475, "Renilla control light, replicate 1": 2845, "outcome": "inactive"}
{"gene": "intr", "DRSC id": "DRSC14528", "firefly reporter light, replicate 1": 3227, "firefly reporter light, replicate 2": 8365, "Renilla control light, replicate 1": 1033, "Renilla control light, replicate 2": 2468, "outcome": "inactive"}
{"gene": "M6", "DRSC id": "DRSC11869", "firefly reporter light, replicate 1": 10912, "Renilla control light, replicate 1": 4552, "outcome": "inactive"}
{"gene": "CG11426", "DRSC id": "DRSC11658", "firefly reporter light, replicate 1": 16242, "Renilla control light, replicate 1": 5997, "outcome": "inactive"}
{"gene": "eIF2alpha", "DRSC id": "DRSC20327", "firefly reporter light, replicate 1": 3773, "firefly reporter light, replicate 2": 6953, "Renilla control light, replicate 1": 1034, "Renilla control light, replicate 2": 717, "outcome": "inactive"}
{"gene": "Gr5a", "DRSC id": "DRSC18085", "firefly reporter light, replicate 1": 20442, "Renilla control light, replicate 1": 9269, "outcome": "inactive"}
{"gene": "CG31937", "DRSC id": "DRSC00514", "firefly reporter light, replicate 1": 14343, "Renilla control light, replicate 1": 5835, "outcome": "inactive"}
{"gene": "Cap-D2", "DRSC id": "DRSC15401", "firefly reporter light, replicate 1": 5056, "firefly reporter light, replicate 2": 7044, "Renilla control light, replicate 1": 1108, "Renilla control light, replicate 2": 1779, "outcome": "inactive"}
